Measurements reported in patent publication US20140086881A1, “GOOD HEALTHY CELLS FOUND IN PROTEINS, THEIR APPLICATIONS, AND PROCESS OF MAKING A MEDIUM TO HARVEST THE CELLS” (priority 2012, published 2014).

Tested on: atherosclerotic model
Excerpt: 10 ApoE ko mice were fed with regular chow diet and used as negative control group. 50 ApoE ko mice were fed with high fat diet (35% kcal fat, 1% cholesterol) for 8 weeks, and then the plasma samples were collected for lipid profile measurement before the treatment. 50 ApoE ko mice were assigned into 5 groups based on the fasting overnight plasma TC and HDL level.
• 23 Dec. 2011: 60 ApoE mice arrived at chempartner and were housed in the animal facility in the building #3 for the acclimation. • 6 Jan. 2012: Measured the body weight for each mouse. 50 mice were fed with high fat diet and 10 mice were fed with normal chow diet. • 2 Mar. 2012: All mice were fasted over night and plasma samples (about 300 ul whole blood) were collected for lipid profile measurement before treatment with RAAS antibody. • 19 Mar. 2012 to 6 Apr. […] 2012: All mice were fasted over night and plasma sample for each mouse (about 300 ul whole blood) was collected for lipid profile measurement after 16 weeks treatment. Blood glucose was also measured for each mouse. • 9 Jul. 2012: The study was terminated after 16 weeks treatment. Measure BW, sacrificed each mouse, dissected the aorta, heart, liver and kidney and fixed them in 4% PFA.
Antibody products were administrated by intraperitoneal injection every two days (Monday, Wednesday, and Friday). and the positive compound was administered by p.o every day.
The body weight was weighed weekly during the period of treatment.
The fasting overnight blood glucose was measured at the end of study by Roche glucometer.
About 300 ul of blood sample was collected from the orbital vein for each mouse and centrifuged at 7000 rpm for 5 min at 4° C. and the plasma lipid profile was measured by Roche Modular automatic biochemistry analyzer in DaAn Medical Laboratory
After RAAS antibody products treatment for 16 weeks, all mice were sacrificed. Measured body weight and collected blood sample for each mouse. Weighed liver weight and saved a tiny piece of liver into 4% paraformaldehyde (PFA) fixation solution for further analysis. At same time, take the photos with heart, lung, aortas and two kidneys.
1. Sacrificed the mice and dissected the heart, aorta, and arteries under dissecting microscope.
4. Stain with freshly prepared Oil Red O working solution 10 min. • 1). Oil red O stock stain: 0.5% powder in isopropanol • 2). Working solution: dilute with distilled water (3:2) and filter with membrane (0.22 um)
Scanning the glasses slides with the Aperio ScanScope system and analyze with the image proplus software to measure the area of atherosclerotic plaque lession. The results were expressed as the percentage of the total aortic surface area covered by lesions. […]
The results were expressed as the Mean±SEM and statistically evaluated by student's t-test. […]

CC(C)c1c(C(=O)Nc2ccccc2)c(-c2ccccc2)c(-c2ccc(F)cc2)n1CC[C@@H](O)C[C@@H](O)CC(=O)O [Atorvastatin]
Low Density Lipoprotein (LDL) (16 week treatment): significantly decrease low density lipoprotein | plasma total cholesterol (TC) (16 week treatment): significantly lower total cholesterol level | High Density Lipoprotein (HDL) (16 weeks treatment): significantly lower high density lipoprotein | plasma Triglyceride (TG) (16 weeks treatment): no effect
